## Percent effect of library compounds

The chains behind the UniProt entries cited, without tags or fusion partners. Residues count along the entry.
UniProt Q4DA54, 1-478: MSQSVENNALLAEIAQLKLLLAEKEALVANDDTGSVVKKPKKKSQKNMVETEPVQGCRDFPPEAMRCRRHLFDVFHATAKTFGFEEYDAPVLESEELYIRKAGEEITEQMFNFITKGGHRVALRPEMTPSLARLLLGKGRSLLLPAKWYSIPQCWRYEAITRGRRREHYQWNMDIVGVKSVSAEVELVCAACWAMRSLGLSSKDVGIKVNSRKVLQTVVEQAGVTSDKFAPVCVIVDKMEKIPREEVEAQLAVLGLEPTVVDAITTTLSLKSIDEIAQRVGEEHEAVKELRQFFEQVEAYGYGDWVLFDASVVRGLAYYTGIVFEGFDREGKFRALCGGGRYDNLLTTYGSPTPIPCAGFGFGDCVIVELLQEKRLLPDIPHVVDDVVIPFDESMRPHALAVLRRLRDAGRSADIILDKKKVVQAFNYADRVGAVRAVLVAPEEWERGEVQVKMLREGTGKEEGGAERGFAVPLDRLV
UniProt A4I591, 1-473: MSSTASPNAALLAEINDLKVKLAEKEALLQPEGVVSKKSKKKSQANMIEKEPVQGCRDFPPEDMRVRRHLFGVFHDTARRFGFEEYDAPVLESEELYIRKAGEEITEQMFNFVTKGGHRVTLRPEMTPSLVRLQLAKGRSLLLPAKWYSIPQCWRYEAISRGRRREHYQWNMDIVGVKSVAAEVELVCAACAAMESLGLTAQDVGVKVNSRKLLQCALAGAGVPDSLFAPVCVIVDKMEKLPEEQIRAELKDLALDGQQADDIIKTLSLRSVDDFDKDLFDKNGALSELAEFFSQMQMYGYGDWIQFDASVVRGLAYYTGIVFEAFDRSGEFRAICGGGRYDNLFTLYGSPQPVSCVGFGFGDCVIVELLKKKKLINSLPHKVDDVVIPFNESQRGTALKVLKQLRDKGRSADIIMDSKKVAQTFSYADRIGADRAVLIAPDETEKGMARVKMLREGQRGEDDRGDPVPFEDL
UniProt P9WPC5, whole entry: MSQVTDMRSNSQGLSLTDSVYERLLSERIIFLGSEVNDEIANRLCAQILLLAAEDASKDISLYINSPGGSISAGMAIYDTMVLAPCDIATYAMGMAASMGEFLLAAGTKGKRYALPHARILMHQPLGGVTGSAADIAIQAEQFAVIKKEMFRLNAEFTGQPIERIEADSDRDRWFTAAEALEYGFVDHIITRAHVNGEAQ
UniProt P9WPC3, whole entry partner: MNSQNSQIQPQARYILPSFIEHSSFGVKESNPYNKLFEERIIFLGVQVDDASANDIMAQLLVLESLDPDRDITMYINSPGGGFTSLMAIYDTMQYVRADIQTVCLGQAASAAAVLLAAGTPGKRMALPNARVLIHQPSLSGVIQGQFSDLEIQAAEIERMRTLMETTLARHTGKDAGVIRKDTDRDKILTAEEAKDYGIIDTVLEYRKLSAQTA

Source: ChEMBL document CHEMBL3988442, “University of Dundee, Small-Polar-MMV Screening Library” (2021).

A: 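Assay of Toxoplasma gondii numbers, read through their beta-galactosidase reporter with a colour substrate. Tested at 10 µM. Higher reads as fewer parasites (inferred from which compounds were picked for retests). Size under these conditions: about 67,000 compounds, about 260 of them at 50% or above in at least one test.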
B: 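Cell assay of Leishmania donovani living inside macrophages; the read-out is not stated. Tested at 30 µM. Direction is inferred from retests: higher values go with stronger inhibition. Size under these conditions: about 69,000 compounds, about 1,000 of them at 50% or above in at least one test.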
C: 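Enzyme assay of histidyl-tRNA synthetase; the read-out is not stated. Target: Histidine-tRNA ligase, Trypanosoma cruzi CL Brener (UniProt Q4DA54). Compounds at 30 µM. Higher reads as stronger inhibition (inferred: compounds with an IC50 in retests scored well above the rest). Size under these conditions: about 69,000 compounds, about 31 of them at 50% or above in at least one test.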
D: 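Histidine-tRNA ligase, Leishmania infantum (UniProt A4I591). Enzyme assay of histidyl-tRNA synthetase; the read-out is not stated. Concentration: 30 µM. Higher reads as stronger inhibition (inferred: compounds with an IC50 in retests scored well above the rest). The assay is labelled LdHisRS but filed under L. infantum. About 69,000 compounds were tested under these conditions; 0.6% (about 410) showed 50% or more at least once.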
E: 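Protease assay of ClpP1P2, read by the AMC dye that it sets free. Target: ClpP1P2, Mycobacterium tuberculosis (UniProt P9WPC5 and UniProt P9WPC3). Compounds at 50 µM. Direction is inferred from only a few compounds that gave an IC50; most scored high, so higher reads as stronger inhibition. Most other retested compounds had strongly negative values. Size under these conditions: about 69,000 compounds, about 10 of them at 50% or above in at least one test.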
F: 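Whole-parasite assay of Trypanosoma brucei over 72 hours; the read-out is not stated. Tested at 30 µM. The record gives no direction; compounds that gave an IC50 in retests scored well above the rest, so higher reads as stronger inhibition. Values scatter widely below zero; nearly all retest evidence comes from the higher of the two concentrations used. About 64,000 compounds were tested under these conditions; 1.5% (about 940) showed 50% or more at least once.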

The filed quantity is “Percent Effect” (%). The controls that fix the scale are not given in the record; negative values are as filed. Compounds were drawn at random from those tested, without regard to their results. Two or more numbers in one place are separate tests of the same structure; such repeats can differ widely. A dash means the value is not listed here; it may have been measured.

compound,A,B,C,D,E,F
COc1ncc(CN2CC[C@@](C)(O)[C@H](Oc3cccc(F)c3)C2)cn1,-6.608,-2.313,5.376,2.857,-0.2307,37.73
Nc1cc(-c2cncnc2C2CCN(C(=O)c3ccccc3)C2)ccn1 (stereo not given),-,2.077,3.077,5.634,-27.62,-
CCC[C@@H](NC(N)=O)C(=O)N1CCc2c(Cl)cccc2C1,-2.559,10.13,6.952,5.759,-1.306,12.44
CO[C@@H]1CC[C@H]2[C@H]1OCCN2C(=O)c1ccc(C)nc1,-,-,6.557,7.018,-1.063,-
Cc1ccc2c(n1)N(C)CCN(CCN1CCCC1)C2.O=C(O)C(F)(F)F.O=C(O)C(F)(F)F.O=C(O)C(F)(F)F,-1.071,42.95 and 21.62,-,-,-,-24.96
COc1ccc(N2CCN(Cc3noc(CC(C)C)n3)C(C)C2=O)cc1 (stereo not given),4.106,42.31,5.473,18.07,-3.859,-48.02
COc1ccc(NCc2nc(=O)n(CCC(C)C)[nH]2)cc1,-2.665,11.21,-2.174,22.86,-12.34,21.04
O=C(O)C(F)(F)F.O=C(O)C(F)(F)F.c1cncc(CN2CCc3c(nnn3CC3CC3)C2COCC2CC2)c1 (stereo not given),-1.249,3.663,-,-,-,26.56
O=C(NCc1ccnc(O)c1)NCC1CCCC1,15.37,19.07,5.882,17.54,3.632,-8.152
CCN(Cc1nnnn1C1CC1)c1cc(C)ccc1C,-47.62,17.56,2.105,5.479,3.457,-39.04
Cc1ccc(NC(=O)Cn2cc(I)cn2)cc1,4.653,-24.65,4.065,0.9615,-4.191,-49.1
NC(=O)Cc1ccc(NC(=O)C2CCOCC2)cc1,7.431,-1.824,3.448,12.31,0.5518,-16.46
CN1C(=O)C2(CCN(C(=O)c3ccccc3)CC2)c2cc(F)ccc21.Cl,18.57,50.2,-,-,-,21.67
COC(=O)c1ccc(NS(=O)(=O)c2cnc(NC(C)=O)s2)cc1,53.94,-2.954,6.087,12.07,9.492,-37.18
Cc1ncc(S(=O)(=O)Nc2ccnn2C2CCCCC2)[nH]1,4.654,8.482,6.122,5.714,-0.8455,-3.474
CCc1nnc2ccc(N3CCN(S(=O)(=O)c4ccc(Cl)s4)CC3)nn12,-0.1351,15.33,22.6,19.51,-11.21,-24.26
CCn1cc(CN2CCCC(c3[nH]ncc3-c3ccc(C)cc3)C2)cn1 (stereo not given),-21.35,-12.5,3.659,8.434,-17.54,-13.45
Cc1noc(C)c1C(=O)NCC(O)c1ccc(F)cc1F (stereo not given),-1.185,-16.94,1.149,-9.231,-0.56,-57.84
CN(C)C(C(=O)N1CC(c2ccccn2)C1)c1cccc(F)c1 (stereo not given),-6.686,-5.332,1.63,18.67,8.166,-3.456
Cc1noc(C)c1CN1CCOCC12CCN(c1ncccn1)CC2.O=C(O)C(F)(F)F,-3.196,49.21,-,-,-,-79.15
O=C1CC(NCc2ncc[nH]2)CN1CCc1cccc(Cl)c1 (stereo not given),13.84,87.49,-2.4,9.836,-22.96,84.65
CS(=O)(=O)NCCC(=O)Nc1cnn(-c2ccccc2Cl)c1,10.69,37.54,3.509,18.18,2.619,-13.82
CN1CCOC(CNC(=O)CCCOc2cccc(F)c2)C1 (stereo not given),-19.17,18.18,5.572,13.89,-9.885,3.021
CCN(Cc1ccc(C(C)=O)cc1)CC1CCOCC1,1.619,-2.784,9.013,21.31,16.82,98.5
[H][C@@]12CS(=O)(=O)C[C@]1([H])N(Cc1cnc(C)nc1)CCN2C(=O)C1CCC1,-,22.39,-,-,-,-13.7
Cn1ccnc1C(=O)N[C@@H]1CN(Cc2cccs2)[C@@H]2CCCO[C@@H]21,-,-,2.941,28.57,5.91,-
O=C(Cc1cccnc1)NC1CCCN(CCCc2ccccc2)C1 (stereo not given),-1.597,1.196,8.543,6.742,-4.058,-18.76

Once more, the final 2:

compound,A,B,C,D,E,F
Cn1ccnc1C(=O)N[C@@H]1CN(Cc2cccs2)[C@@H]2CCCO[C@@H]21,-,-,2.941,28.57,5.91,-
O=C(Cc1cccnc1)NC1CCCN(CCCc2ccccc2)C1 (stereo not given),-1.597,1.196,8.543,6.742,-4.058,-18.76